In the supplement of paper PMC12819154, “High-throughput peptide-centric local stability assay extends protein–ligand identification to membrane proteins, tissues and bacteria” (Nature Structural & Molecular Biology, 2025):
Some of the results follow. Most entries show no effect beyond the scatter of the controls.

By UniProt entry, the sequences of proteins in these tests, tags left out. Where a name states a change or a piece, a line headed by the entry shows the natural chain unless it says otherwise.
UniProt Q02053: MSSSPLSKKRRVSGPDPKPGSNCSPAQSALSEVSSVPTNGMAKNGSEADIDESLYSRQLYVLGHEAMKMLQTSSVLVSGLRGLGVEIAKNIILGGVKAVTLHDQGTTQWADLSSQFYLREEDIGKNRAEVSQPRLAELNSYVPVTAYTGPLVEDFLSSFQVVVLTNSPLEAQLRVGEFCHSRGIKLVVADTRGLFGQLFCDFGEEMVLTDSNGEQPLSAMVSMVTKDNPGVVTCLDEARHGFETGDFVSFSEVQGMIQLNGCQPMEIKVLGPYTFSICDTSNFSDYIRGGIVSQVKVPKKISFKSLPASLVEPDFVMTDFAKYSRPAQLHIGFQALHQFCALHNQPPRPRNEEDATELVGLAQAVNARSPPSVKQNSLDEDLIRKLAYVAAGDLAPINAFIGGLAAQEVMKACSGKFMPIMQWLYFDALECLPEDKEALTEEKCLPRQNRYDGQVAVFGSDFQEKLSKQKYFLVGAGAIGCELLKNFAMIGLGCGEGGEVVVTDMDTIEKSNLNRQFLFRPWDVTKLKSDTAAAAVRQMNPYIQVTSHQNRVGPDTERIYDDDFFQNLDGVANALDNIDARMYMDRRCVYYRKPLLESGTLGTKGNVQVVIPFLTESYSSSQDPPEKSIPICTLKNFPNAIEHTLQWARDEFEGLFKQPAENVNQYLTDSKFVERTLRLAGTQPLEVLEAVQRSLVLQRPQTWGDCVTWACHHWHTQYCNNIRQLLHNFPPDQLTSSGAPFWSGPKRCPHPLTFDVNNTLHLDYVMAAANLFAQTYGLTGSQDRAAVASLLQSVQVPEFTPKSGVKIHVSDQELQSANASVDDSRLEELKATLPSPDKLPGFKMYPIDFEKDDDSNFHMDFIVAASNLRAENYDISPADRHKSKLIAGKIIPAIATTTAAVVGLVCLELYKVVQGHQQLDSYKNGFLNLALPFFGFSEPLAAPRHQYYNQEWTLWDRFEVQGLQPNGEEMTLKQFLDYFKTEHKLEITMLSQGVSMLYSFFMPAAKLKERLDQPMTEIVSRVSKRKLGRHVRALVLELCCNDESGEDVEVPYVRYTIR
UniProt P99029: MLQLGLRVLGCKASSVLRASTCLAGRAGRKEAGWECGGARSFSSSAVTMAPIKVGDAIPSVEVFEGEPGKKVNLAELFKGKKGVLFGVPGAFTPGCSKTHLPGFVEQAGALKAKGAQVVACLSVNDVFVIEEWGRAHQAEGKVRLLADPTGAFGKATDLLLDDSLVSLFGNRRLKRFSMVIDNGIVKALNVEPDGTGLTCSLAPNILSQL
UniProt P84309: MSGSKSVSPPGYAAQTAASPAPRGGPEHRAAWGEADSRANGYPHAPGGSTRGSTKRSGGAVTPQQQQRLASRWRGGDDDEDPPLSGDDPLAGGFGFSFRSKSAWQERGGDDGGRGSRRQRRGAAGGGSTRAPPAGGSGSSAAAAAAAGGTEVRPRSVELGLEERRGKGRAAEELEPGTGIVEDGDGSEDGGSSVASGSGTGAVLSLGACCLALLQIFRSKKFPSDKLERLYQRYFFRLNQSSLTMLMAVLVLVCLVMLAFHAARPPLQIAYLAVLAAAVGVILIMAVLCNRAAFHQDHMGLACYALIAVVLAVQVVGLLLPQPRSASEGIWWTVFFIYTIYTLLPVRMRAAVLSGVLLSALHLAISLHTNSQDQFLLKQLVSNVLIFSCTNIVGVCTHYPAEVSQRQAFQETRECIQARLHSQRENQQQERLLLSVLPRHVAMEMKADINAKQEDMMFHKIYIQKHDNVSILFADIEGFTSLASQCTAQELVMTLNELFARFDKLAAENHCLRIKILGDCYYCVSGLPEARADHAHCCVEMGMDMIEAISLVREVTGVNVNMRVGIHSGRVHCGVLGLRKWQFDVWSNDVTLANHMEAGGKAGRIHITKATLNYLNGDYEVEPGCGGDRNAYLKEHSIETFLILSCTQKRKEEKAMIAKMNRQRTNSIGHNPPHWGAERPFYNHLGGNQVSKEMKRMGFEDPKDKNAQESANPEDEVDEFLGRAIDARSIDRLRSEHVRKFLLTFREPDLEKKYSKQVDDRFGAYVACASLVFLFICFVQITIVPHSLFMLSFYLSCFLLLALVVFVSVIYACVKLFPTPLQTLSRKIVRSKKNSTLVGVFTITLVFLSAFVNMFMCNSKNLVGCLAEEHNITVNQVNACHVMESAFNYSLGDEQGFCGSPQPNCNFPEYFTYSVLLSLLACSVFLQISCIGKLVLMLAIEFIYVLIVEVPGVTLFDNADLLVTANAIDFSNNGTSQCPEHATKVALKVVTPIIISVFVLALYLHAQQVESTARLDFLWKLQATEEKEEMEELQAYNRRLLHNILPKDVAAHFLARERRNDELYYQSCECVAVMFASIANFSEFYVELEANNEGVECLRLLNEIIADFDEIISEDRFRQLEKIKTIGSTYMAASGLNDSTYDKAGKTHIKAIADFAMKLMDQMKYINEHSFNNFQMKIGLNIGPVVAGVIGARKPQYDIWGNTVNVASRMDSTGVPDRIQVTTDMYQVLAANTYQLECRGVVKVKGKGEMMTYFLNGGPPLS
UniProt P70351, whole entry: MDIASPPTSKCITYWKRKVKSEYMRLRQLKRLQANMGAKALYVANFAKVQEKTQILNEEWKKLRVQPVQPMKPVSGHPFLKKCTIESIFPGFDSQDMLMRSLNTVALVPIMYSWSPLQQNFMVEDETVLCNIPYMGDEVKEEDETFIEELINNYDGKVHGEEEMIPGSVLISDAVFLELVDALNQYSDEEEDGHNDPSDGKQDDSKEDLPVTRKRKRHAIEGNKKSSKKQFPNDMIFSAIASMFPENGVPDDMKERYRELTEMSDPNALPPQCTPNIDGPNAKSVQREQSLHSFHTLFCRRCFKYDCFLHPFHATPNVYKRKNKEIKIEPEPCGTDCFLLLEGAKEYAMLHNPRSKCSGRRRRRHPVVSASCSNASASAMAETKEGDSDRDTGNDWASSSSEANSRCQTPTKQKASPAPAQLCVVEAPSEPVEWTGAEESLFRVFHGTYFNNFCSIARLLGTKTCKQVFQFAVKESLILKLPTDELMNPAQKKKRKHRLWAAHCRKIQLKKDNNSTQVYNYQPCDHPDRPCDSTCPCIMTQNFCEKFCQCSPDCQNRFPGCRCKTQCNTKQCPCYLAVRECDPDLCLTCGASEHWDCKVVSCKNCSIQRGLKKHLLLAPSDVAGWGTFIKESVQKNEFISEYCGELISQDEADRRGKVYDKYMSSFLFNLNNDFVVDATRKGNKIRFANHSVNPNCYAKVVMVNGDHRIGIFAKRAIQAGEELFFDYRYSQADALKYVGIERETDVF
UniProt P70195: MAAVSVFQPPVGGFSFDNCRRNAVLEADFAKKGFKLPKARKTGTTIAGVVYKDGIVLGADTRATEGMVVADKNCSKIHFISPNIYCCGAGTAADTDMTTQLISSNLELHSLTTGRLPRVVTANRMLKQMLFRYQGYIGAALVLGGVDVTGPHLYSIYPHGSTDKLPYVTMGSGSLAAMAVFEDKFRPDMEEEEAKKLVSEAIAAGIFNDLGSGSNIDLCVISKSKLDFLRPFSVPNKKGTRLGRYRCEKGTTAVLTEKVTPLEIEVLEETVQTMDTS
UniProt Q01237: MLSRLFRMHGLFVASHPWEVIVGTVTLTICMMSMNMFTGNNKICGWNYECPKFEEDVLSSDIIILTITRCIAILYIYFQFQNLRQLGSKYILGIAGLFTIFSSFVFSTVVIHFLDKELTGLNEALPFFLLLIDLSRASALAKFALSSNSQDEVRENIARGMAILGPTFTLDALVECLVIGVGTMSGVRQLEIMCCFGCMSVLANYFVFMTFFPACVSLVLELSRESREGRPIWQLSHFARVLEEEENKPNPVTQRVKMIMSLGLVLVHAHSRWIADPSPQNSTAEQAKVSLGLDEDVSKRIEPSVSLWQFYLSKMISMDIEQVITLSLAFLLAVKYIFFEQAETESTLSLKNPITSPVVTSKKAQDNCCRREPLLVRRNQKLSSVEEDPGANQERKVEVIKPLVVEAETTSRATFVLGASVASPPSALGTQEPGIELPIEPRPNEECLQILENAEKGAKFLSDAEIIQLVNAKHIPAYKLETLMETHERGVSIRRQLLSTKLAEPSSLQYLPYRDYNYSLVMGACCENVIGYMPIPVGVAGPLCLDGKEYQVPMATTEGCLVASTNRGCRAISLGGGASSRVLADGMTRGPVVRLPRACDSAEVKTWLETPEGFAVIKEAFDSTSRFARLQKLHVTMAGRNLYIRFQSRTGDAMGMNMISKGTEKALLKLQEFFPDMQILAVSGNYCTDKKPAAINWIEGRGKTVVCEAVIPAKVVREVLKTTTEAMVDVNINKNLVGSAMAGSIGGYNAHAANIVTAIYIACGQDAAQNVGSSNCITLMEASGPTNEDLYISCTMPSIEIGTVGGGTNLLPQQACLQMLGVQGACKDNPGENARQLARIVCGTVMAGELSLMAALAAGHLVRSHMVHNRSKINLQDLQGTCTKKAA
UniProt P70296: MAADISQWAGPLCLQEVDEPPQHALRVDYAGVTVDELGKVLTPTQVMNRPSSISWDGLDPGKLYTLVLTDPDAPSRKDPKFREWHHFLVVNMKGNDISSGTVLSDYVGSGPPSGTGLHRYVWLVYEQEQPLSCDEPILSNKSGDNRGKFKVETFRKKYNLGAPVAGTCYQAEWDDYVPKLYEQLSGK
UniProt P97376: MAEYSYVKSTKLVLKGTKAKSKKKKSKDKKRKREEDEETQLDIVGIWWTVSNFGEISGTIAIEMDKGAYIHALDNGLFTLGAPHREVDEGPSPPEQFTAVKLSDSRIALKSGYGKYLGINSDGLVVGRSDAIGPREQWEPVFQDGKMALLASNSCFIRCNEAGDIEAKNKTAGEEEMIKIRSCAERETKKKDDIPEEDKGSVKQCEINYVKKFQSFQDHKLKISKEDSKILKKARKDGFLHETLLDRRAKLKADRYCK
UniProt P97440, whole entry, looked up: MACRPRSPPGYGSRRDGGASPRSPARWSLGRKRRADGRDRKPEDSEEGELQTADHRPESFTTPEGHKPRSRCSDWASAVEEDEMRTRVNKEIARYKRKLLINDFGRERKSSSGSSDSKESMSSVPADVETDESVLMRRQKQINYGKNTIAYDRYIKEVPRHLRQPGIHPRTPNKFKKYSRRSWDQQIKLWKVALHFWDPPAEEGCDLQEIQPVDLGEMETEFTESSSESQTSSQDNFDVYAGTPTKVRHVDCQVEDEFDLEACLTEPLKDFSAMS
UniProt P99026: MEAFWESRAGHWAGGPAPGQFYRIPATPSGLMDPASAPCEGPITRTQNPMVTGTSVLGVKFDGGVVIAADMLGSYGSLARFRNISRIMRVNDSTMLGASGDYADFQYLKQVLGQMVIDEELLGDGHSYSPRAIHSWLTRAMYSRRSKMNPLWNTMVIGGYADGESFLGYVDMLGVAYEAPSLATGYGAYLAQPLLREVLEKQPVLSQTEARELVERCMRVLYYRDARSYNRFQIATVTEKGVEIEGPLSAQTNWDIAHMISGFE
UniProt P70172: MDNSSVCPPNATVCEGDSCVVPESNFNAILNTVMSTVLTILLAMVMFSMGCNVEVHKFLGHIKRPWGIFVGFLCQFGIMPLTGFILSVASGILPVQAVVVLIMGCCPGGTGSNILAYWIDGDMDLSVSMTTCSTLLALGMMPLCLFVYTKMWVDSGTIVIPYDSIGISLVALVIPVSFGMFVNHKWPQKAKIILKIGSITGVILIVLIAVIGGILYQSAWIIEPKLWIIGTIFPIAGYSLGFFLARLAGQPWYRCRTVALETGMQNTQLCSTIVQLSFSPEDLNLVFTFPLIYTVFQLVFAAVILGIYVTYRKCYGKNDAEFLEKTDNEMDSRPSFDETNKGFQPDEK
UniProt P98192: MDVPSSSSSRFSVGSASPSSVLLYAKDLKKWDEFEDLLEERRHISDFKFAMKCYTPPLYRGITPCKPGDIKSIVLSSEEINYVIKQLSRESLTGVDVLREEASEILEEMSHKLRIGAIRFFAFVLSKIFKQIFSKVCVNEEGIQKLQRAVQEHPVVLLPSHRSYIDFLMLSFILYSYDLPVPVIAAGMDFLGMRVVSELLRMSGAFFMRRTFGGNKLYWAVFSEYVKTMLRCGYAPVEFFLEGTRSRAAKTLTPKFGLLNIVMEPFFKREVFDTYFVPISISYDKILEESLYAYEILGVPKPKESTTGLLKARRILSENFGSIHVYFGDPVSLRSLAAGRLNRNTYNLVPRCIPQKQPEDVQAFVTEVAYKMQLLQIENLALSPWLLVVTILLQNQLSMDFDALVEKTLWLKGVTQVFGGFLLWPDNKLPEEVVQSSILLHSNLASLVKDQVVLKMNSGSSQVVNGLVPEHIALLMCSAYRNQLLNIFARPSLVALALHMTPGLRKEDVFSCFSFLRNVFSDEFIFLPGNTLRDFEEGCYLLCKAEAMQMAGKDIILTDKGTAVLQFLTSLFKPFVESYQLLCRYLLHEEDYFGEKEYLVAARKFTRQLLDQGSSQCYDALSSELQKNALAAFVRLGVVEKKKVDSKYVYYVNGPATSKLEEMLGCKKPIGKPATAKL
UniProt P97450: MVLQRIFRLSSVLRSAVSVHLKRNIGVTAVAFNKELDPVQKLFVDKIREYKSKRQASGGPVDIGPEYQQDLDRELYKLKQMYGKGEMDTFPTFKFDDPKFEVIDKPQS

Compound: CN[C@@H]1C[C@H]2O[C@@](C)([C@@H]1OC)n1c3ccccc3c3c4c(c5c6ccccc6n2c5c31)C(=O)NC4 [staurosporine]
Assay: log2 fold change of tryptic peptide abundance, ligand vs vehicle (limited proteolysis) (log2 ratio); higher = more trypsin-susceptible (destabilized)
Conditions: ligand concentration: 20 uM; sample: mouse liver crude lysate; replicate design: treated separately

Target | log2 fold change
UniProt P98064 (peptide sequence: SDEDEQHLHVKR, peptide start residue: 531) | 0.544
UniProt P97287 (peptide sequence: DSKPLGEAGAAGR, peptide start residue: 176) | -0.372
UniProt Q02053 (peptide sequence: VGEFCHSR, peptide start residue: 175) | -0.563
UniProt P97461 (peptide sequence: RQAVDVSPLR, peptide start residue: 136) | 0.187
UniProt P99029 (peptide sequence: RFSMVIDNGIVK, peptide start residue: 176) | -0.157
UniProt P70288 (peptide sequence: IEEDKKETEDK, peptide start residue: 447) | 0.0229
UniProt P84309 (peptide sequence: MDSTGVPDR, peptide start residue: 1114) | -0.417
UniProt P70351 (peptide sequence: VVMVNGDHR, peptide start residue: 700) | 0.12
UniProt P70195 (peptide sequence: GTTAVLTEK, peptide start residue: 250) | -0.237
UniProt Q01237 (peptide sequence: LETLMETHER, peptide start residue: 480) | 0.299
UniProt P70296 (peptide sequence: LYTLVLTDPDAPSRKDPK, peptide start residue: 63) | -0.258
UniProt P70670 (peptide sequence: NILFVITKPDVYK, peptide start residue: 2073) | -0.0842
UniProt P97393 (peptide sequence: ESTHQSEDVFLPSPR, peptide start residue: 956) | -0.166
UniProt P97376 (peptide sequence: DDIPEEDKGSVK, peptide start residue: 192) | 0.313
UniProt P97440 (peptide sequence: KLLINDFGR, peptide start residue: 98) | 0.439
UniProt P70372 (peptide sequence: VSYARPSSEVIKDANLYISGLPR, peptide start residue: 93) | -0.372
UniProt P99026 (peptide sequence: AGHWAGGPAPGQFYR, peptide start residue: 9) | 0.374
UniProt P97390 (peptide sequence: LVSAVVEYGGKR, peptide start residue: 422) | 0.36
UniProt P86048 (peptide sequence: MLSCAGADRLQTGMR, peptide start residue: 102) | -0.167
UniProt P70172 (peptide sequence: TDNEMDSRPSFDETNK, peptide start residue: 326) | 0.0244
UniProt P98192 (peptide sequence: NTYNLVPR, peptide start residue: 344) | 0.342
UniProt P97927 (peptide sequence: DSHCHLSSSPR, peptide start residue: 1447) | 0.699
UniProt P97324 (peptide sequence: EMVQNLMVLR, peptide start residue: 206) | 0.509
UniProt P97450 (peptide sequence: QMYGKGEMDTFPTFK, peptide start residue: 80) | -0.294
UniProt P70168 (peptide sequence: ANFDKESER, peptide start residue: 207) | -1.09

Laid out differently: results already given.
Target,log2 fold change
"UniProt P97287 (peptide sequence: DSKPLGEAGAAGR, peptide start residue: 176)",-0.372
"UniProt Q02053 (peptide sequence: VGEFCHSR, peptide start residue: 175)",-0.563
"UniProt P97461 (peptide sequence: RQAVDVSPLR, peptide start residue: 136)",0.187
"UniProt P99029 (peptide sequence: RFSMVIDNGIVK, peptide start residue: 176)",-0.157
"UniProt P70288 (peptide sequence: IEEDKKETEDK, peptide start residue: 447)",0.0229
"UniProt P84309 (peptide sequence: MDSTGVPDR, peptide start residue: 1114)",-0.417
"UniProt P70351 (peptide sequence: VVMVNGDHR, peptide start residue: 700)",0.12
